Biological target: T1, Cytochrome P450 2J2 (Homo sapiens, UniProt P51589)
T1 sequence (P51589 whole entry): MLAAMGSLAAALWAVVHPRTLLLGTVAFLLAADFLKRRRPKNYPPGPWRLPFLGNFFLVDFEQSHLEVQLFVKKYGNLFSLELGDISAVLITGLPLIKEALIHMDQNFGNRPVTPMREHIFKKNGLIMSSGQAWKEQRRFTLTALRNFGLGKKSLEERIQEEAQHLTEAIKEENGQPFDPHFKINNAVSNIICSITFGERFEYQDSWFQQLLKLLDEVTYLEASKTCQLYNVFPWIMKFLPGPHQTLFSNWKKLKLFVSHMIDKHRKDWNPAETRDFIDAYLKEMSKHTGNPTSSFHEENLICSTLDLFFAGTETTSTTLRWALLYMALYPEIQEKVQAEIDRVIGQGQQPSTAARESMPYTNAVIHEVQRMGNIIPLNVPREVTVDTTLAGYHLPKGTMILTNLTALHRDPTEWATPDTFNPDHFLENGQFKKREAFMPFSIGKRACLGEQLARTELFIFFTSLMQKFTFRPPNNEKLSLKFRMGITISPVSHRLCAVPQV

`COC(=O)C1=C(C)NC(C)=C(C(=O)OC)C1c1ccccc1[N+](=O)[O-]` [NIFEDIPINE] showed an IC50 of 3.06 µM.

Reference: ChEMBL document CHEMBL3526101, “Discovery and characterization of novel, potent, and selective cytochrome P450 2J2 inhibitors” (Drug Metab Dispos, 2013)
